# Reference: PubChem BioAssay AID2685 (National Center for Advancing Translational Sciences (NCATS), 2010)
# Where “and” joins values, the source holds several entries; their conditions need not be identical. Equal values may be shown once. The list shows a part of the results. Shown are side measurements of this screen, not its main read-out; they come without a call. Compounds called inactive in the main read-out are mostly missing here. Potencies come from curve fits of mixed quality, noted in brackets.
# Test: qHTS Assay for Lipid Storage Modulators in Drosophila S3 Cells;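 on cell number change: cells counted by Cell Tracker Red CMTPX staining in the red channel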
# Details: BODIPY lipid droplet fluorescence, 18-24 h; for cell number change: measured here: cell count max response, cells fed with added oleic acid
# Procedure, shortened: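 Drosophila S3 cells loaded with oleic acid (400 uM, as added) and compounds at several concentrations; lipid droplets imaged by 488-nm laser-scanning cytometry, 500–530 nm intensity and object ratio to cell channel. Percent activity normalized to 20 uM Triacsin C.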
# [1] = measured here: lipid fluorescence (Fed channel) AC50, cells fed with added oleic acid
# [2] = measured here: cell number channel AC50, cells fed with added oleic acid
Structure (SMILES),cell number change,AC50 [1],AC50 [2]
O=C(NCc1ccncc1)c1ccc(NS(=O)(=O)c2cccc([N+](=O)[O-])c2)cc1,2.56%,"6.51 µM [falling, single point]",–
COC(=O)C1=C(N)Oc2cc(C)[nH]c(=O)c2C1c1ccncc1 (configuration not stated),–,"23.1 µM [rising, partial curve]","1.84 µM [rising, partial curve]"
CC(C)C[C@H](NC(=O)OC(C)(C)C)c1n[nH]c(=S)n1N,1.58%,–,–
CCOP(=O)(OCC)C(NC(=O)Nc1ccc(C)c(Cl)c1)c1ccccc1 (configuration not stated),-2%,–,–
O=C(CNC1CCCC1)Nc1ccc(S(=O)(=O)N2CCCCC2)cc1,2.61%,"6.51 µM [falling, single point]",–
S=c1[nH]nc(-c2ccn[nH]2)n1-c1ccccc1Cl,-4%,–,–
CCCCn1c(SCc2nc3ccccc3s2)nc2cc(S(N)(=O)=O)ccc21,120%,"0.103 µM [rising, full curve, poor fit]","2.91 µM [rising, partial curve]"
Cn1c(SCC(=O)c2ccc(F)cc2)nnc1-c1ccccn1,22.1%,"1.03 µM [rising, partial curve]",–
Cc1cccc2c(SCC(N)=O)nc(-c3ccccc3)nc12,42.7%,–,"32.6 µM [rising, single point]"
Cc1ccc(C)c(S(=O)(=O)N2CCN(C(=O)CCNS(=O)(=O)c3ccc(C)c(C)c3)CC2)c1,-21.1%,"32.6 µM [falling, single point]",–
O=C(C1CCCO1)N(c1cccc(Cl)c1)C1C=CS(=O)(=O)C1 (configuration not stated),-4.88%,–,–
CC(O)C1CCC2C3CC[C@H]4CC(O)CCC4(C)C3CC3(OCCO3)C12C (some centres not stated),-38.9%,"5.17 µM [falling, single point]","0.461 µM [falling, partial curve]"
COCCN(C(=O)CSc1nnc(-c2ccccc2C)n1C)c1c(N)n(Cc2ccccc2)c(=O)[nH]c1=O,–,–,"0.00411 µM [rising, full curve, poor fit]"
CCNC(=O)COc1ccc(F)cc1C(=O)c1cnn(-c2ccccc2)c1,4.62%,"6.51 µM [rising, single point]",–
CC(C)NC(=O)C1CCN(C(=O)c2cc3sccc3n2Cc2ccc(F)cc2)CC1,-0.817%,–,–
COc1ccc(C2c3c(ncn(CCCO)c3=N)Oc3ccc4ccccc4c32)cc1 (configuration not stated),-10.7%,–,–
CC1CCCCN1C(=O)CSc1nnc(-c2ccc(Cl)s2)o1 (configuration not stated),–,–,"6.51 µM [rising, single point]"
COc1ccc(C2CC(c3ccc4ccccc4c3)=NN2C(=O)CSc2ncccn2)cc1 (configuration not stated),-16.4%,"29.1 µM [falling, single point]",–
COc1ccc(CCNC(=O)C2CCN(S(=O)(=O)c3ccc(F)cc3)CC2)cc1,-1.69%,–,–
Cn1cccc1/C=N\NC(=O)c1cncc(Br)c1,17.4%,"23.1 µM [rising, single point]",–

# A few values from above:
# cell number change with COc1ccc(C2c3c(ncn(CCCO)c3=N)Oc3ccc4ccccc4c32)cc1 (configuration not stated) reads -10.7%
# AC50 [2] with CC1CCCCN1C(=O)CSc1nnc(-c2ccc(Cl)s2)o1 (configuration not stated) reads 6.51 µM [rising, single point]

# Next structures

Structure (SMILES),cell number change,AC50 [1],AC50 [2]
COc1ccccc1CNS(=O)(=O)c1ccc2c(c1)CC(C)N2C(=O)C1CCC1 (configuration not stated),–,"6.51 µM [falling, partial curve]",–
Cc1c(-c2ccccc2)nc2ccccc2c1C(=O)OCC(=O)Nc1ncc(C(F)(F)F)cc1Cl,–,"0.164 µM [rising, full curve, poor fit]",–
COCCOCC(O)CN1CCN(c2ccccc2)CC1 (configuration not stated),-35.5%,–,"20.6 µM [falling, single point]"
C=CCNC(=O)C1CCN(c2ccc(S(=O)(=O)N3CCOCC3)cc2Cl)CC1,-12.4%,–,–
Cc1nc2ccc(S(=O)(=O)NCC(=O)N3CCc4ccccc4C3)cc2s1,54.2%,"6.51 µM [falling, single point]","6.51 µM [falling, single point]"
CCn1c(SCC(=O)Nc2ccc(OC)c(OC)c2)nc2c(c1=O)SCC2,4.99%,"0.092 µM [falling, full curve, poor fit]",–
COc1ccc(/C=C2\SC(=S)N(CC(=O)OCC(=O)Nc3cc(Cl)cc(Cl)c3)C2=O)cc1,14.8%,"2.59 µM [rising, full curve]",–
COc1cc(NC(=O)C2Cc3ccccc3CN2S(C)(=O)=O)cc(OC)c1 (configuration not stated),40.4%,–,"14.6 µM [rising, partial curve, poor fit]"
O=C(Cc1cccs1)Nc1ccc(Cl)cc1,9.17%,"10.3 µM [rising, partial curve, poor fit]",–
COc1ccc(CCc2nnc(CCC(=O)NCC3CCCO3)o2)cc1 (configuration not stated),-84%,–,"29.1 µM [falling, single point]"
CCCCC(=O)Nc1ccc(NC(=O)C(C)C)cn1,-19.7%,–,–
CCOC(=O)N1CCC(NC(=O)c2ccc(Cl)cc2)CC1,-20.8%,–,"0.651 µM [falling, full curve, poor fit]"
COC(=O)CSc1nc(C)cc(Oc2ccccc2)n1,-144%,"23.1 µM [falling, partial curve]","18.4 µM [falling, partial curve]"
CCN(C(=O)COC(=O)CNC(=O)c1ccc2ccccc2c1)C1CCS(=O)(=O)C1 (configuration not stated),0.782%,–,–
S=c1[nH]nc(COc2ccccc2)n1/N=C/c1ccc(Br)cc1,11.1%,–,–
COc1cc(C(c2sc3nc(C)nn3c2O)N2CCC3(CC2)OCCO3)cc(OC)c1OC (configuration not stated),39%,"14.6 µM [rising, partial curve]","11.6 µM [rising, single point]"
COc1ccccc1NC(=O)c1cc(S(=O)(=O)N2CCOCC2)ccc1Cl,0.191%,"1.84 µM [rising, partial curve]",–
CCCCCCCCCCCCCCCCn1cc[n+](C)c1,-75.4% and -65.3%,"4.61 µM [falling, full curve] and 2.59 µM [falling, full curve]","2.91 µM [falling, full curve] and 3.66 µM [falling, full curve]"
COc1cc(OC)c(OC)cc1CN1CCN(c2ccc(F)cc2)CC1,23.2%,"0.13 µM [falling, full curve, poor fit]",–
O=C(CN1C(=O)c2ccccc2S1(=O)=O)Nc1ncc([N+](=O)[O-])s1,4.65%,"6.51 µM [rising, single point]",–

Structure (SMILES),cell number change,AC50 [1],AC50 [2]
Cc1ccc(CN(Cc2cc3cc(C)ccc3[nH]c2=O)C(=O)N2CCOCC2)cc1,-20.2%,"20.6 µM [rising, single point]",–
CCOc1ccc(C(=O)OCC(=O)N(Cc2ccccc2)Cc2ccccc2)cc1OC,-7.99%,"2.31 µM [rising, partial curve, poor fit]",–
CCC(=O)C1CCCN(C(=O)CCc2nnc(-c3ccc4c(c3)OCO4)o2)C1 (configuration not stated),20%,"0.82 µM [rising, full curve, poor fit]",–
Cc1ccc(NC(=O)Cn2c(O)c(N=NS(=O)(=O)c3ccc(C)cc3)c3ccccc32)cc1,17.6%,"25.9 µM [rising, single point]",–
CCOc1ccc(CCNC(=O)CCC(=O)N2CCSc3ccccc32)cc1OCC,-41.5%,"2.06 µM [falling, partial curve, poor fit]","8.2 µM [falling, partial curve, poor fit]"
COc1ccccc1-c1ccc(SCc2ccccc2)nn1,34.7%,"18.4 µM [rising, single point]","18.4 µM [rising, single point]"
Cn1c(SCC(=O)N2CCN(c3ccccc3)CC2)nnc1-c1ccco1,-19.7%,–,–
CCn1c2ccccc2c2cc(NC(=O)CSc3nnc(C4CC4)n3Cc3ccco3)ccc21,-126%,"29.1 µM [falling, single point]","29.1 µM [falling, single point]"
N/C(=N\OC(=O)c1ccc(Cl)cc1)c1ccccn1,30%,"23.1 µM [rising, partial curve]","29.1 µM [rising, single point]"
O=C(O)CCNC(=O)/C(=C/C=C/c1ccccc1)NC(=O)c1ccccc1,-2.12%,"0.58 µM [falling, single point]",–
COc1ccc2nc(SC)cc(C)c2c1,6.42%,"6.51 µM [falling, single point]","4.11 µM [falling, single point]"
O=C(CSc1nc(-c2ccccc2)cc(C(F)(F)F)n1)NCc1ccco1,0.369%,"20.6 µM [rising, single point]",–
CCCOc1ccccc1C(=O)NCCCC(=O)O,-0.204%,"2.06 µM [falling, partial curve, poor fit]",–
COCCN(C(=O)COC(=O)c1cc(C)n(-c2ccccc2)c1C)c1c(N)n(Cc2ccccc2)c(=O)[nH]c1=O,27.1%,–,–
COC(=O)Cc1c(C(=O)OC)nnn1-c1cccc(C(F)(F)F)c1,27.7%,"29.1 µM [rising, partial curve, poor fit]",–
Cc1ccc(C(=O)CSc2nnc(-c3c[nH]c4ccccc34)o2)cc1,–,"0.411 µM [rising, partial curve, poor fit]",–
CC(NC(=O)CCC(=O)NC(C)c1ccccc1)c1ccccc1 (configuration not stated),1.62%,"29.1 µM [rising, partial curve, poor fit]",–
Cc1ccc(S(=O)(=O)N2CCCOC2CNC(=O)C(=O)NCCc2c[nH]c3ccccc23)cc1 (configuration not stated),23.7%,–,"2.59 µM [rising, single point]"
CN1CCN(c2ccccc2NC(=O)c2sc3ccccc3c2Cl)CC1,-30.7%,"0.146 µM [falling, full curve, poor fit]","29.1 µM [falling, partial curve, poor fit]"
